We go through two molecules from PMC6022656.

These are yes or no findings as the source states them, for the method shown. In cells and extracts the contact can be indirect. Some results given as binding are weak or reduced against the parent protein; the word gives no strength. Sequences can lack the tags named with a protein.

Test [1] deals with GST-OsCDKB1;1 (rice (Oryza sativa)), Q8L4P8. The experiment in a line: pull-down; GST-OsCDKB1;1 on glutathione-Sepharose incubated with His-OsCYCA2;1 supernatant, 4 °C, 2 h, PBS washes; eluted with 10 mM reduced glutathione; blot with anti-His6; only the target purified. To be noted: remark: other sources report otherwise.
The target of test [2] is OsCDKB1;1 in pSPYNE-35S (BiFC fusion) (rice (Oryza sativa)), Q8L4P8. The experiment in a line: split reporter; BiFC; pSPYCE-35S-OsCYCA2;1 and pSPYNE-35S-OsCDKB1;1 co-injected into N. benthamiana leaves; confocal images after 3 d. To be noted: remark: other sources report otherwise.

B1: His-OsCYCA2;1, Q2QQ96 1-490 (protein)
chain: MAGRKENPVLTACQAPSGRITRAQAAANRGRFGFAPSVSLPARTERKQTAKGKTKRGALDEITSASTATSAPQPKRRTVLKDVTNIGCANSSKNCTTTSKLQQKSKPTQRVKQIPSKKQCAKKVPKLPPPAVAGTSFVIDSKSSEETQKVELLAKAEEPTNLFENEGLLSLQNIERNRDSNCHEAFFEARNAMDKHELADSKPGDSSGLGFIDIDNDNGNPQMCASYASEIYTNLMASELIRRPRSNYMEALQRDITKGMRGILIDWLVEVSEEYKLVPDTLYLTINLIDRFLSQHYIERQKLQLLGITSMLIASKYEEICAPRVEEFCFITDNTYTKAEVLKMEGLVLNDMGFHLSVPTTKTFLRRFLRAAQASRNVPSITLGYLANYLAELTLIDYSFLKFLPSVVAASAVFLARWTLDQSDIPWNHTLEHYTSYKSSDIQICVCALRELQHNTSNCPLNAIREKYRQQKFECVANLTSPELGQSLFS
B1: the binding entry in test [1] was “binds”.

B2: OsCYCA2;1 in pSPYCE-35S (BiFC fusion), Q2QQ96 1-490 (protein)
chain: MAGRKENPVLTACQAPSGRITRAQAAANRGRFGFAPSVSLPARTERKQTAKGKTKRGALDEITSASTATSAPQPKRRTVLKDVTNIGCANSSKNCTTTSKLQQKSKPTQRVKQIPSKKQCAKKVPKLPPPAVAGTSFVIDSKSSEETQKVELLAKAEEPTNLFENEGLLSLQNIERNRDSNCHEAFFEARNAMDKHELADSKPGDSSGLGFIDIDNDNGNPQMCASYASEIYTNLMASELIRRPRSNYMEALQRDITKGMRGILIDWLVEVSEEYKLVPDTLYLTINLIDRFLSQHYIERQKLQLLGITSMLIASKYEEICAPRVEEFCFITDNTYTKAEVLKMEGLVLNDMGFHLSVPTTKTFLRRFLRAAQASRNVPSITLGYLANYLAELTLIDYSFLKFLPSVVAASAVFLARWTLDQSDIPWNHTLEHYTSYKSSDIQICVCALRELQHNTSNCPLNAIREKYRQQKFECVANLTSPELGQSLFS
As for B2, the binding result in test [2] was “binds”.
